Data as given in article doi:10.1101/2024.08.08.607148 (bioRxiv, 2024).
No constants are given. Whether binding was seen depends on the method and setting. Some binding calls cover weakened binding; strength is not graded here.

By UniProt entry, the sequences of proteins in these tests, tags left out. Residues count along the entry.
UniProt Q8NHL6, residues 24-461: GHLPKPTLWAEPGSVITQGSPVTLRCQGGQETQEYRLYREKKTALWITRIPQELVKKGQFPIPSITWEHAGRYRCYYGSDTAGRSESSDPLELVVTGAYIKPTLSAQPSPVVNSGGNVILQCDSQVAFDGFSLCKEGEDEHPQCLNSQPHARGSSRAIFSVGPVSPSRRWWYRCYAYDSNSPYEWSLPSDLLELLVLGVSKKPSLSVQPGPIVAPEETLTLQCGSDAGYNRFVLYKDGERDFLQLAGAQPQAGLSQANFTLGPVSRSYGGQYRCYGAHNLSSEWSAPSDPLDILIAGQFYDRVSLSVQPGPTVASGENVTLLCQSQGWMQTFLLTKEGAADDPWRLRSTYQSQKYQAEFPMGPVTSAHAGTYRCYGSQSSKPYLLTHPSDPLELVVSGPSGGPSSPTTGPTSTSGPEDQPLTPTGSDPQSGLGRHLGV

Target: T1, variable region of RIFIN#1 (PF3D7_1254800, 165-274 aa) (P. falciparum) (UniProt Q8I4N9)
T1 sequence: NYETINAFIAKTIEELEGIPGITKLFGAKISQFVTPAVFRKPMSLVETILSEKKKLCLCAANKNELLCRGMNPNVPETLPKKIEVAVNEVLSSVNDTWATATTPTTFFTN
Experiment: ELISA

extracellular domain (ECD) of human LILRB1 (from UniProt Q8NHL6 24-461) (receptor)
binding: binds
